Results are given in words; binding and its absence hold for the method and conditions named. Some binding calls cover weakened binding; strength is not graded here.

Sequences of proteins named here, by UniProt entry; tags and fusion partners are left off. A change or cut given only in a name is not applied to a line headed by its entry. Residues count along the entry.
UniProt P35613, residues 138-325: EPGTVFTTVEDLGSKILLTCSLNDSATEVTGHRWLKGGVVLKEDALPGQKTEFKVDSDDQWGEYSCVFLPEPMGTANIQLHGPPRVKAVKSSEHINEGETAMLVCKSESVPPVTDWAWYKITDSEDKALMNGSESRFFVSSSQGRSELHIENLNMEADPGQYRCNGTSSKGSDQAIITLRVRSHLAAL
UniProt Q9BWQ6: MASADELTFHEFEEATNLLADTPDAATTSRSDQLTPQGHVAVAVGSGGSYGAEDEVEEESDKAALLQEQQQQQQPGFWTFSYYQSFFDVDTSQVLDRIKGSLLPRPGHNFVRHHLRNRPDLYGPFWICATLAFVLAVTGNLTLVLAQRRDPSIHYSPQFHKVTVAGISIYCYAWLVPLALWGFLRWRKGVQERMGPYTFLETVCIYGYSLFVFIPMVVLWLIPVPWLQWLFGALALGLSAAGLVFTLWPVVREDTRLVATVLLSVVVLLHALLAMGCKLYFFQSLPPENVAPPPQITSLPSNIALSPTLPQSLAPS

For this assay, the target named is EpoR/LR-F3/CD147EP chimera receptor (extracellular portion of CD147 as MAPPIT bait) (UniProt P35613). Description: two-hybrid; analytical MAPPIT: HEK293T cells co-transfected with bait plasmid (pSEL1/CD147EP or pSEL1/CD147IP), prey plasmid (pMG1/YIPF2) or mock and the reporter pXP2d2-rPAP1-luci; EPO 5 ng/mL for 24 h or not stimulated; luciferase, positive if ES/NS > 5.

Take “YIPF2 prey of analytical MAPPIT (pMG1/YIPF2) (from UniProt Q9BWQ6 1-316)”: the binding result is “binds”.

These data come from PMC6561952.
